Results are given in words; binding and its absence hold for the method and conditions named. Some results given as binding are weak or reduced against the parent protein; the word gives no strength.
What was measured:
[1] = biological target: Aβ(1-40 Cys) oligomer (Example 12A); assay: western blot after non-reducing Tricine SDS-PAGE
[2] = biological target: Aβ(1-40 Cys) oligomer (Example 12A); assay: Biacore, antibody captured on anti-human Ig chip, peptide injected
[3] = biological target: Aβ(1-40 Cys) oligomer (Example 12A); assay: Biacore, antibody captured on anti-human Ig chip, cys-dimer peptide injected; qualitative grade
[4] = biological target: amyloid β peptide (antigen of the EIA of Table 2); assay: ELISA (EIA), amyloid β peptide immobilised; qualitative grade

Binder | binding [1] | binding [2] | binding [3] | binding [4]
recombinant Aβ(21-37) autoantibody 50/60 (antibody, V domains shown) VH: EVQLVESGGGVVQPGGSLRLSCAASGFTFRNYDMHWVRQGIGKGLEWVGRIGTAGRTNYNPSLKGRFTISRENAKDSLYLQMNSLRVGDAAVYYCARGAGRWAPLGAFDIWGQGTLVIVS VL: DIQMTQSPATLSLSPGERAALSCRASQSVNSYLAWYQQKPGQAPRLLIYGAASRATGIPARFSGSGSGTDFTLTISRLEPEDFAVYYCQQYGSSQGTFGPGTKVDIKR | – | – | binds | binds
recombinant Aβ(21-37) autoantibody 50/61 (antibody, V domains shown) VH: EVQLVESGGGVVQPGGSLRLSCAASGFTFRNYDMHWVRQGIGKGLVWVSRIGTAGDRYYAGSVKGRFTISRENAKDSLYLQMNSLRVGDAAVYYCARGAGRWAPLGAFDIWGQGTLVIVS VL: DIQMTQSPATLSLSPGERAALSCRASQSVNSYLAWYQQKPGQAPRLLIYGAASRATGIPARFSGSGSGTDFTLTISRLEPEDFAVYYCQQYGSSQGTFGPGTKVDIKR | – | – | binds | binds
recombinant Aβ(21-37) autoantibody 54/60 (antibody, V domains shown) VH: EVQLVESGGGVVQPGGSLRLSCAASGFTFRNYDMHWVRQGIGKGLEWVGRIGTAGRTNYNPSLKGRFTISRENAKDSLYLQMNSLRVGDAAVYYCARGAGRWAPLGAFDIWGQGTLVIVS VL: DIVLTQSPATLSLSPGERVTITCRASQSVNSYLAWYQQKPGQAPRLLIYGASTRATGIPDRFSGSGSGTDFTLTISRLEPEDFAVYYCQQYGSSQGTFGPGTKVDIKR | – | – | binds | binds
recombinant Aβ(21-37) autoantibody 51/61 (antibody, V domains shown) VH: EVQLVESGGGVVQPGGSLRLSCAASGFTFRNYDMHWVRQGIGKGLVWVSRIGTAGDRYYAGSVKGRFTISRENAKDSLYLQMNSLRVGDAAVYYCARGAGRWAPLGAFDIWGQGTLVIVS VL: EIVLTQSPATLSLSPGERVTITCRESQGIRNYLAWYQQKPGQAPRLLIYGASTRATGIPDRFSGSGSGTDFTLTISRLEPEDFAVYYCQQYGSSQGTFGPGTKVDIKR | – | – | binds | binds

The next lines start with the values.

binding [1] | binding [2] | binding [3] | binding [4] | Binder
binds | binds | binds | – | recombinant Aβ(21-37) autoantibody 55/61 (antibody, V domains shown) VH: EVQLVESGGGVVQPGGSLRLSCAASGFTFRNYDMHWVRQGIGKGLVWVSRIGTAGDRYYAGSVKGRFTISRENAKDSLYLQMNSLRVGDAAVYYCARGAGRWAPLGAFDIWGQGTLVIVS VL: DIQMTQSPGTLSLSPGERAALSCRASQSVSSYLAWYQQKPGQAPRLLIYAASIRATGIPDRFSGSGSGTDFTLTISRLEPEDFAVYYCQQYGSSQGTFGPGTKVDIKR
binds | binds | binds | – | recombinant Aβ(21-37) autoantibody 54/61 (antibody, V domains shown) VH: EVQLVESGGGVVQPGGSLRLSCAASGFTFRNYDMHWVRQGIGKGLVWVSRIGTAGDRYYAGSVKGRFTISRENAKDSLYLQMNSLRVGDAAVYYCARGAGRWAPLGAFDIWGQGTLVIVS VL: DIVLTQSPATLSLSPGERVTITCRASQSVNSYLAWYQQKPGQAPRLLIYGASTRATGIPDRFSGSGSGTDFTLTISRLEPEDFAVYYCQQYGSSQGTFGPGTKVDIKR
– | – | binds | binds | recombinant Aβ(21-37) autoantibody 55/60 (antibody, V domains shown) VH: EVQLVESGGGVVQPGGSLRLSCAASGFTFRNYDMHWVRQGIGKGLEWVGRIGTAGRTNYNPSLKGRFTISRENAKDSLYLQMNSLRVGDAAVYYCARGAGRWAPLGAFDIWGQGTLVIVS VL: DIQMTQSPGTLSLSPGERAALSCRASQSVSSYLAWYQQKPGQAPRLLIYAASIRATGIPDRFSGSGSGTDFTLTISRLEPEDFAVYYCQQYGSSQGTFGPGTKVDIKR
